## Library screening results

Results are given as percent effect. The record does not define 0% and 100%; most values in the screen are far below 50% and negative numbers occur (in some assays of this library far below -100). Compounds were drawn at random from those tested, without regard to their results. A dash means the value is not listed here; it may have been measured.

Mtb heat-shock: 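Assay on Mycobacterium tuberculosis, filed only as a heat shock assay from Cornell; the read-out is not stated. The concentration is filed as 10 mM, unlikely as a test dose, so the dose is not known. Higher reads as stronger inhibition (inferred: compounds with an IC50 in retests scored well above the rest). Of about 69,000 compounds tested this way, about 930 (1.4%) reached 50% or more in at least one test.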
Mtb growth Cornell: 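Whole-cell assay for inhibitors of Mycobacterium tuberculosis growth, labelled Cornell in the record; the read-out is not stated. The concentration is filed as 10 mM, unlikely as a test dose, so the dose is not known. Higher means stronger inhibition (inferred from two other growth screens of the library). Size under these conditions: about 53,000 compounds, about 900 of them at 50% or above in at least one test.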

| # | SMILES | Mtb heat-shock | Mtb growth Cornell |
|---|---|---|---|
| 1 | `N#Cc1ccc(NCc2cccnc2N2CCC(C(N)=O)CC2)cn1` | 9.051% | - |
| 2 | `O=c1[nH]cc(N2CCOCC2)c(=O)[nH]1` | 10.76% | 4.622% |
| 3 | `[H][C@@]12CS(=O)(=O)C[C@]1([H])N(Cc1cccc(C#N)c1)CCN2C(=O)C1CCC1` | -20.36% | 25.78% |
| 4 | `O=c1c2ccccc2nc2n1CCN(Cc1cccs1)CC2` | 1.432% | 20.89% |
| 5 | `CC(C)(C)N1CC(C(=O)NCc2noc(Cc3ccccc3)n2)CC1=O` (stereo not drawn) | -22.98% | -19.11% |
| 6 | `Cc1cc(-c2ccccc2)nc(C2CCCN2S(C)(=O)=O)n1` (stereo not drawn) | 13.81% | -11.27% |
| 7 | `CCN1CCOC(CNc2nccc(OC)n2)C1` (stereo not drawn) | -31.17% | 23.85% |
| 8 | `CC(C)CNC(=O)c1nnsc1-c1ccccc1` | -36.24% | 4.243% |
| 9 | `CCN(CC(=O)NC(C)C)S(=O)(=O)N1CCCC(C)C1` (stereo not drawn) | -9.024% | -4.352% |
| 10 | `Cc1nc(NCc2ccco2)nc2c1COCC21CCNC1.O=C(O)C(F)(F)F` (stereo not drawn) | -11.18% | 16.92% |
| 11 | `CCc1ncc2c(n1)CN(C(=O)Cc1cc(OC)cc(OC)c1)C2` | -12.76% | - |
| 12 | `Cc1cccc(C(=O)NCCCN2CCN(c3ccccc3)CC2)c1` | -5.485% | 8.358% |
| 13 | `CS(=O)(=O)N[C@@H]1CN(C(=O)c2cc3ccccc3s2)C[C@H]1O` | 101.8% | 34.62% |
| 14 | `Cc1cnc(C)c(N2CCCC(CO)(Cc3ccccc3C)C2)n1` (stereo not drawn) | -10.16% | 5.498% |
| 15 | `O=C(NCCCOc1cccnc1)c1cn(CCc2ccccc2)nn1` | -1.993% | 26.32% |
| 16 | `Cc1ccc(F)cc1C(=O)NCc1ccc(C(=O)O)o1` | -34.35% | - |
| 17 | `COCCNC(=O)Cn1cc(OCc2ccccc2)c(=O)cc1CO` | 22.17% | 2.503% |
| 18 | `O=C(NCCNC(=O)C1CCCCC1)NCCn1cccc1` | 6.2% | -3.543% |
| 19 | `COc1ccc(Oc2ncccc2NC(=O)N2CCOC(C)C2)cc1` (stereo not drawn) | -9.006% | 18.57% |
| 20 | `Cc1nccn1C1CCCN(C(=O)COCC(F)(F)F)C1` (stereo not drawn) | -9.528% | 4.556% |
| 21 | `CC1CCC(NS(=O)(=O)CC(=O)NC(C2CC2)C2CC2)CC1` (stereo not drawn) | -3.368% | -19.5% |
| 22 | `Cc1nc(CC(=O)N2CCCC(n3ccnc3C(C)C)C2)cs1` (stereo not drawn) | -8.988% | 9.995% |
| 23 | `CCc1nnc(CNC(=O)CCC2CCCCN2C)s1` (stereo not drawn) | -11.93% | 3.29% |
| 24 | `CN(Cc1ccc(Cl)s1)C(=O)CN(C)C1CCc2ccccc21` (stereo not drawn) | 17.28% | - |
| 25 | `CSCC(C)CNC(=O)N1CCSC(C)(C)C1` (stereo not drawn) | -16.05% | - |
| 26 | `CCC(O)CNC(=O)c1cc(COc2ccc(OC)cc2Cl)[nH]n1` (stereo not drawn) | 0.3074% | 7.272% |
| 27 | `Cn1nc(C2CC2)c2c1NC(=O)CC2c1cc(CN2CCCC2)cs1` (stereo not drawn) | -18.43% | - |
| 28 | `COc1ccc(CN(Cc2cnc(N)nc2)CC2CCCO2)c(OC)c1.O=C(O)CC(O)(CC(=O)O)C(=O)O` (stereo not drawn) | -15.63% | 15.61% |
| 29 | `O=C(CCC1CCN(C2CSCCSC2)CC1)NCC1CCCO1` (stereo not drawn) | -7.239% | - |
| 30 | `O=C(Cc1cccs1)Nc1cnn(C2CCOCC2)c1` | 17.4% | -22.56% |
| 31 | `Cc1cnccc1CN(C)Cc1c[nH]nc1-c1ccc(F)cc1F` | -16.18% | 24.78% |
| 32 | `CCc1n[nH]c(C2CN(CCS(C)(=O)=O)CCO2)n1` (stereo not drawn) | -2.107% | -21.24% |
| 33 | `Cc1noc(-c2cccnc2N2CCOC(C)(c3cnn(C)c3)C2)n1` (stereo not drawn) | -3.238% | -8.38% |
| 34 | `CCCc1nnc(N2CCC3(CC2)CC(=O)NC(=O)C3)o1` | -6.192% | - |
| 35 | `Cc1cc(C)c(CNC(=O)NCc2nnc3n2CCC3)c(=O)[nH]1` | -3.787% | - |
| 36 | `Cc1ccccc1CN1CCOC(c2nccc(CN(C)C)n2)C1` (stereo not drawn) | -23.99% | -48.65% |
| 37 | `O=C(c1ccc(Cl)s1)N1CC(c2nc(-c3ccc[nH]c3=O)no2)C1` | -20.12% | 21.01% |
| 38 | `CC1CN(CCOc2cccc(C#N)c2)CCN1Cc1nccn1C` (stereo not drawn) | -16.09% | - |
| 39 | `COCc1cccc(S(=O)(=O)NCc2cnn(C)c2C)c1` | -3.216% | - |
| 40 | `[H][C@@]12CCC(=O)N(Cc3cccc(C)n3)[C@]1([H])CCN2CC1CCOCC1` | 1.361% | - |
| 41 | `CCNC(=O)CCc1c(C)nc2cc(O)nn2c1C` | 0.7588% | 3.574% |
| 42 | `CCNC(=O)c1cc(OC)c2cc(F)cc(C)c2n1` | -3.19% | 43.84% |
| 43 | `O=C(OCCF)c1cccc(C(=O)N2CCCC2)n1` | -32% | -19.23% |
| 44 | `Cn1cc(NC(=O)c2ccccn2)cc(Cl)c1=O` | 7.559% | 26.01% |
| 45 | `O=C(O)C(F)(F)F.[H][C@]12CN(Cc3cccc(Cl)c3)C[C@@]1([H])OCCN(C(C)=O)C2` | 2.746% | 9.695% |
| 46 | `Cc1cc(=O)[nH]c(=O)n1COCCOCc1ccccc1` | -10.57% | 11.12% |
| 47 | `O=C(CCCc1ccccn1)NCC(O)c1c(F)cccc1F` (stereo not drawn) | 0.482% | 10.9% |
| 48 | `Cc1cccc(I)c1C(=O)NCc1ncc[nH]1` | 5.228% | 4.647% |
| 49 | `CN1C(=O)C(C)(C)COc2ccc(NS(=O)(=O)Cc3ccccc3)cc21` | 26.09% | -4.912% |
| 50 | `C[C@@H]1CN(Cc2ccoc2)C[C@]12CCN(CC(=O)N(C)C)C2=O.O=C(O)C(F)(F)F` | 10.48% | -0.02932% |
| 51 | `O=C(CCc1cscn1)NS(=O)(=O)c1ccc2c(c1)CCC2` | -15.21% | -11.04% |
| 52 | `O=C(C1CC1)N1CCC(c2nc(-c3ccccc3)n[nH]2)CC1` | 2.018% | -12.56% |
| 53 | `NS(=O)(=O)CCN1CCOC(c2ccc(Cl)cc2)C1` (stereo not drawn) | -19.16% | 26.64% |
| 54 | `O=C(O)C(F)(F)F.c1cnc(NCc2nnn3c2CN(Cc2ccco2)CCC3)nc1` | -16.16% | 23.5% |
| 55 | `Cc1cnccc1N1CCCN(C(=O)CCn2ccnc2C)CC1` | 2.662% | - |
| 56 | `CCOCC1CN(Cc2ccoc2)Cc2nn(C)cc21.O=C(O)C(F)(F)F` (stereo not drawn) | -18.76% | 3.12% |
| 57 | `Cc1ccc(C(=O)N2CCn3cnc(COCC4CC4)c3C2)cn1.O=C(O)C(F)(F)F` | 10.52% | -1.313% |
| 58 | `CN(CCc1ccccn1)C(=O)Nc1cccnc1-n1cccn1` | -25.27% | -40.35% |
| 59 | `COc1cc(C2CC(=O)Nc3c2nc2n3CCCC2)cc2c1OCO2` (stereo not drawn) | -3.807% | 20.58% |
| 60 | `c1cnnc(N2CCCC2CNCc2cnc(N3CCCC3)nc2)c1` (stereo not drawn) | 13.52% | - |
| 61 | `CC(c1ccccc1Cl)N(C)Cc1nc2c(cnn2C)c(=O)[nH]1` (stereo not drawn) | -6.582% | - |

5 of the entries, repeated:

SMILES	Mtb heat-shock	Mtb growth Cornell
CCN(CC(=O)NC(C)C)S(=O)(=O)N1CCCC(C)C1 (stereo not drawn)	-9.024%	-4.352%
O=C(O)C(F)(F)F.[H][C@]12CN(Cc3cccc(Cl)c3)C[C@@]1([H])OCCN(C(C)=O)C2	2.746%	9.695%
COCCNC(=O)Cn1cc(OCc2ccccc2)c(=O)cc1CO	22.17%	2.503%
[H][C@@]12CCC(=O)N(Cc3cccc(C)n3)[C@]1([H])CCN2CC1CCOCC1	1.361%	-
Cn1cc(NC(=O)c2ccccn2)cc(Cl)c1=O	7.559%	26.01%

Source: ChEMBL document CHEMBL3988442, “University of Dundee, Small-Polar-MMV Screening Library” (2021).